The values that follow come from PMC10778422, “PI3Kδ Inhibition Potentiates Glucocorticoids in B-lymphoblastic Leukemia by Decreasing Receptor Phosphorylation and Enhancing Gene Regulation”.

Data set [1] addresses T1, GR-AF1-DBD-1P (S226P) (Homo sapiens) (UniProt P04150).
T1 sequence (looked up): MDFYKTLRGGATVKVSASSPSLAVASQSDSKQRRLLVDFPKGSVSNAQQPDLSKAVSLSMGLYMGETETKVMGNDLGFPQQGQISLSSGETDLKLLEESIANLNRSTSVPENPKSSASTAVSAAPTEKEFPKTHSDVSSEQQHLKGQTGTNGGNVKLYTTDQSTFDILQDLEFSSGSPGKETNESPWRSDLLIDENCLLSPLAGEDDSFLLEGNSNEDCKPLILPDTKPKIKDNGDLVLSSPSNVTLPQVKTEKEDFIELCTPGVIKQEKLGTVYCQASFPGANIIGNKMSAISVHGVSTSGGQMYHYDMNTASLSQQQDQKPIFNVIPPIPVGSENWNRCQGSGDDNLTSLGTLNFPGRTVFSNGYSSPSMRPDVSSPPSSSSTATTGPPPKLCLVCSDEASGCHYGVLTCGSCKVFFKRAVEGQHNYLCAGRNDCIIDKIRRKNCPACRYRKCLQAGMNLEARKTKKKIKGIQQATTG
As to the kind of experiment: EMSA. To be noted: phosphorylated 1P (pS226), p < 0.0001, Kd plotted in figure only, 5 mM Mg2+; EMSA: 20 mM Tris-HCl pH 8.0, 150 mM KCl, 10% glycerol, 5 mM MgCl2, 1 mM DTT, 1 mM EDTA, 200 ng/uL BSA, 40 ng/uL salmon sperm DNA; dsDNA diluted to 10 nM in this buffer; recombinant protein; residues 27-506; label: Cy5; scale: fold inhibition of affinity vs unmodified and 6P.

For data set [2], the target named is T2, GR-AF1-DBD-6P (Homo sapiens) (UniProt P04150).
T2 sequence (looked up): T1 sequence (looked up)
As to the kind of experiment: EMSA. To be noted: phosphorylated 6P, p = 0.0036, Kd plotted in figure only, 5 mM Mg2+; EMSA: 20 mM Tris-HCl pH 8.0, 150 mM KCl, 10% glycerol, 5 mM MgCl2, 1 mM DTT, 1 mM EDTA, 200 ng/uL BSA, 40 ng/uL salmon sperm DNA; dsDNA diluted to 10 nM in this buffer; recombinant protein; residues 27-506; label: Cy5.

The exact form of at least one protein or probe is not confirmed. The direction of at least one scale is not stated here. Where a protein sequence is shown, tags need not be part of it.

Regarding “GTACGGAACATCGTGTACTGTAC (double strand) [consensus GR site]”, the binding signal in data set [1] was 3. In data set [2], the binding signal (% inhibition of affinity vs unmodified) was 50.
